Assay results: patent US20200317744A1 (published 2020)
Where a chain is given by its changes, count along the chain named. These are yes or no findings as the source states them, for the method shown. For some of these results: Binding can be weak; no strength is given.

B1: G1_neo2_44 (designed binder)
chain: STKKIQLQLEHALLDVQMALNRSPEPNESLNRMITWLQSWISTGKIDLDNAQEMCKEAEKIRKEMEKRGIDVRDLISNICVILLELS
B2: G1_neo2_35 (designed binder)
chain: STKKWQLQAEHALLDWQMALNKSPEPNENLNRAITAAQSWISTGKIDCDKAEDIRRNSDQARREAEKRGIDVRDLISNAQVILLEAC
B3: G1_neo2_42 (designed binder)
chain: B1 chain with C55A, C80I
B4: G1_neo2_43 (designed binder)
chain: B1 chain with W40C, I46C, C55A, C80I
B5: G1_neo2_36 (designed binder)
chain: STKKLQLQAEHFLLDVQMILNESPEPNEELNRAITDAQSWISTGKIDLDRAEELARNLEKVRDEALKRGIDVRDLVSNAKVIALELK
B6: G1_neo2_37 (designed binder)
chain: B5 chain with A33C, L54C
B7: G1_neo2_38 (designed binder)
chain: B5 chain with W40C, I46C
B8: G1_neo2_39 (designed binder)
chain: B5 chain with A55C, K80C
B9: G1_neo2_40 (designed binder)
chain: STKKLQLQAEHALLDAQMMLNRSPEPNEKLNRIITTMQSWISTGKIDLDGAKELAKEVEELRQEAEKRGIDVRDLASNLKVILLELA
B10: G1_neo2_41 (designed binder)
chain: B9 chain with W40C, I46C

The binders below were run against fluorescently labeled chimeric IL-2Rβγc (hIL-2Rβγc) (human) (assay: yeast display, flow cytometry).

Row | binding | Binder
1 | no binding (tested: 2 nM) | B1
2 | no binding (tested: 2 nM) | B2

Each binder was assayed against fluorescently labeled chimeric IL-2Rβγc (hIL-2Rβγc) (human) (assay: yeast display, flow cytometry, 2 nM hIL-2Rβγc).

Row | binding | Binder
3 | binds | B3
4 | binds | B4
5 | binds | B5
6 | binds | B6
7 | binds | B7
8 | binds | B8
9 | binds | B9
10 | binds | B10
